Laboratory results: PubChem BioAssay (Tox21)
Values joined by “and” are separate entries in the source; they are usually repeats but may differ in a detail not shown here. Equal values may be shown once. Inconclusive means that the source gave no clear call. Such entries were picked first, then a sample of the others. For part of these data: A potency beside an inconclusive call is a rough fit, not a confirmed value. Active and inactive are the calls of the source. Unless noted, calls follow the shape of the full dose curve.

Amino acid sequences for entries named in this document (tags omitted). A change or cut given only in a name is not applied to a line headed by its entry.
UniProt P28223, whole entry, looked up: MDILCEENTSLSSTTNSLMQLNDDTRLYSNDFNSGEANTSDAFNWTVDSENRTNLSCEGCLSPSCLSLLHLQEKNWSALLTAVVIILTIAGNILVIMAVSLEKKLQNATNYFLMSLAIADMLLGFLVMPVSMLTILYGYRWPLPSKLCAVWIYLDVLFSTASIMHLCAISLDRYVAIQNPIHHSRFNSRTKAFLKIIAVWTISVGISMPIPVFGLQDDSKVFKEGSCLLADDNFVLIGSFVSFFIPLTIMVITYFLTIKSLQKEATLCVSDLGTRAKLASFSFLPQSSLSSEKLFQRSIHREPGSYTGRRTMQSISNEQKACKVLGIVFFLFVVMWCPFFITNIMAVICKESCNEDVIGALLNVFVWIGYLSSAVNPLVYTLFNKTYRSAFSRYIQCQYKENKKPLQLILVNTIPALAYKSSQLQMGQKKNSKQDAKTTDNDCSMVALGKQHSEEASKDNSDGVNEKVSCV
UniProt P14416, whole entry, looked up: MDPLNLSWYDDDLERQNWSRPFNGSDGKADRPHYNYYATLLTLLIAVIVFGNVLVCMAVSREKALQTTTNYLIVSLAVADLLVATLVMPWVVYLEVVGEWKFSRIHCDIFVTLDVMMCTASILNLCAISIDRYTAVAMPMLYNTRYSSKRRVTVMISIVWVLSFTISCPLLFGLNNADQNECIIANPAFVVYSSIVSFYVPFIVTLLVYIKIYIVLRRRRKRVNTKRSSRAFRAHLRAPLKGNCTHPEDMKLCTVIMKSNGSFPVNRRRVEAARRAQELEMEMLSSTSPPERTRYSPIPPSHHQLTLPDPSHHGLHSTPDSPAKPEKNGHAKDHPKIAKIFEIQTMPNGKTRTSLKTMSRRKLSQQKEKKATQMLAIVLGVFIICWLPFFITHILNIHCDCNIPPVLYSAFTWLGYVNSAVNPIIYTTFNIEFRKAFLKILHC
UniProt P11229: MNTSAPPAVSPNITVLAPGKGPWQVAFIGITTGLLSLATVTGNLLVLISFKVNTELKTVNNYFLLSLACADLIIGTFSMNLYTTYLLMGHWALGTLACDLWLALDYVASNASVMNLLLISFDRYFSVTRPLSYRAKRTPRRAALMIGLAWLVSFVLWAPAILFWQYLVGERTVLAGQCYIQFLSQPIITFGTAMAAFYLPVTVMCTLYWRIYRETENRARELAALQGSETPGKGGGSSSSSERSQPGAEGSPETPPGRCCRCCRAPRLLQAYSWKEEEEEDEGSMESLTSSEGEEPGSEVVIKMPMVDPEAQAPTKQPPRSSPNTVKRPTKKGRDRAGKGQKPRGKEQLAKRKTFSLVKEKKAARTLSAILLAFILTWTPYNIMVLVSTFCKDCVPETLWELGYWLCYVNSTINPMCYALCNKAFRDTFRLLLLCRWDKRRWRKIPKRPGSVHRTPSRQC

What was measured:
[1] = p53 small molecule agonists, cell-based qHTS assay: qHTS cell viability counter screen (AID 1963581); also: nearly all actives have a fitted effect of over 45% in size; also: potency is read from the fitted curve at half-maximal effect
Method in brief: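 ATP content measured by luminescence in HCT-116 p53RE-bla cells treated 16 h at 37 C, same wells as the reporter screen.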

[2] = p53 small molecule agonists, cell-based qHTS assay (AID 1963582; active = well fitted activation curve with a large enough effect in the signal ratio in the repeat runs, not every such curve was filed as active; inconclusive = weak or mixed curves; the % refers to the signal ratio; also: potency is read from the fitted curve at half-maximal effect; as to activation: % is scaled to controls: 0 for no effect and ±100 for the full control effect); settings: HCT-116 p53RE-bla reporter, beta-lactamase FRET ratio, 16 h; activation: at 66 µM (top of the series) unless noted
Method in brief: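 16 h compound exposure (37 C) of p53 response element–bla cells, preceded by 5 h recovery at 37 C/5% CO2; read-out via LiveBLAzer B/G FRET substrate, 2 h RT, fluorescence intensity.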

[3] = molecular target: 5-hydroxytryptamine receptor 2A (Homo sapiens) (UniProt P28223); experiment: 5-hydroxytryptamine receptor 2A (HTR2A) small molecule antagonists, cell-based qHTS assay (AID 1963586); also: potency is read from the fitted curve at half-maximal effect; nearly all actives have a fitted effect of over 45% in size
Method in brief: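 CHO cells stably expressing human HTR2A were plated for 18 h at 37 C, then loaded with calcium dye for 1 h. Compounds were preincubated 5 min at room temperature before DOI (4 nM solution) was added. Kinetic fluorescence was read for 3 min.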

[4] = cAMP Responsive Elements (CRE) small molecule agonists, cell-based qHTS assay (AID 1963590); settings: CRE-bla HEK293T, beta-lactamase FRET ratio, 3 h; activation: at 92.4 µM (top of the series) unless noted; also: potency is read from the fitted curve at half-maximal effect
Method in brief: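 HEK 293T cells stably bearing CRE-bla were plated at 2,000 cells per well and rested 18 h. Compounds, positive controls or DMSO were added for 3 h at 37 C. LiveBLAzer B/G substrate was then loaded for 2 h at room temperature.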

[5] = cAMP Responsive Elements (CRE) small molecule antagonists, cell-based qHTS assay (AID 1963591; active = well fitted inhibition curve with a large enough effect in the signal ratio in the repeat runs, not every such curve was filed as active; inconclusive = weak or mixed curves, or effect the other way; the % refers to the signal ratio; also: potency is read from the fitted curve at half-maximal effect; as to activity change, negative = inhibition: % is scaled to controls: 0 for no effect and ±100 for the full control effect); settings: CRE-bla HEK293T, beta-lactamase FRET ratio; activity change, negative = inhibition: at 92.4 µM (top of the series) unless noted
Method in brief: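 First, CRE-bla HEK293T cells settled 18 h at 37 C. Next, compound and 0.25 uM final NKH477 were applied for 3 h. Last, LiveBLAzer B/G substrate was loaded for 2 h at room temperature.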

[6] = molecular target: Beta-2 adrenergic receptor (Homo sapiens) (UniProt P07550); experiment: Adrenergic beta2 receptor (ADRB2) small molecule agonists, cell-based qHTS assay (AID 1963593); settings: CHO-ADRB2 cells, cAMP HTRF, 30 min; activation: at 92.4 µM (top of the series) unless noted; also: potency is read from the fitted curve at half-maximal effect;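 as to activation: CHO cells stably overexpressing human ADRB2; % is scaled to controls: 0 for no effect and ±100 for the full control effect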
Method in brief: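 CHO cells stably over-expressing ADRB2 were plated overnight at 37C, then dosed with compounds plus a stimulation mix containing 100uM IBMX and 25uM Ro-20-1724 for 0.5hr at room temperature. cAMP was measured by HTRF competition, 1hr.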

[7] = molecular target: D(2) dopamine receptor (Homo sapiens) (UniProt P14416); experiment: Dopamine D2 receptor (DRD2) small molecule antagonists, cell-based qHTS assay (AID 1963595; active = well fitted inhibition curve with a large enough effect in the signal ratio in the repeat runs, with a control signal flat; inconclusive = weak or mixed curves, or effect the other way; the % refers to the signal ratio; also: potency is read from the fitted curve at half-maximal effect; as to activity change, negative = inhibition: % is scaled to controls: 0 for no effect and ±100 for the full control effect); settings: HEK293-DRD2 cAMP HTRF antagonist mode; activity change, negative = inhibition: at 92.4 µM (top of the series) unless noted
Method in brief: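 HEK293 cells stably expressing DRD2 were preincubated with 0.1 mM Ro20-1724, then with compound for 10 min at room temperature. Cells were stimulated with 200 nM NKH477 plus 12 nM quinpirole for 30 min, and cAMP was read by HTRF.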

[8] = molecular target: D(2) dopamine receptor (Homo sapiens) (UniProt P14416); experiment: Dopamine D2 receptor (DRD2) small molecule agonists, cell-based qHTS assay (AID 1963594); settings: HEK293-DRD2 cAMP HTRF, agonist mode, 30 min; activation: at 92.4 µM (top of the series) unless noted; also: nearly all actives have a fitted effect of over 35% in size; also: potency is read from the fitted curve at half-maximal effect
Method in brief: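 HEK293 cells stably expressing human DRD2, pre-treated with PDE inhibitor Ro20-1724 (0.1 mM final) and compound 10 min at room temperature, then stimulated with NKH477 (200nM […]) for 30 min. cAMP read by HTRF (665/620 nm).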

[9] = molecular target: Muscarinic acetylcholine receptor M1 (Homo sapiens) (UniProt P11229); experiment: Cholinergic receptor muscarinic 1 (CHRM1) small molecule agonists, cell-based qHTS assay (AID 1963589); also: potency is read from the fitted curve at half-maximal effect; nearly all actives have a fitted effect of over 35% in size
Method in brief: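 Homogeneous fluorescence calcium flux, agonist mode. Human M1-expressing CHO cells; compound dosed at 15 concentrations, three independent runs; signal sampled every 1 sec.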

[10] = molecular target: Beta-2 adrenergic receptor (Homo sapiens) (UniProt P07550); experiment: Adrenergic beta2 receptor (ADRB2) small molecule antagonists, cell-based qHTS assay (AID 1963592); settings: CHO-ADRB2 cells, isoproterenol-stimulated cAMP HTRF ratio, 0.5 h; activity change, negative = inhibition: at 92.4 µM (top of the series) unless noted; also: % is scaled to controls: 0 for no effect and ±100 for the full control effect; nearly all actives have a fitted effect of over 50% in size
Method in brief: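 Assay format: CHO-ADRB2 cells, 18-20hr seeding at 37C/5% CO2, then compound plus 1nM isoproterenol agonist mix for 0.5hr RT. Homogeneous time-resolved fluorescence cAMP detection after 1hr, expressed as 665/615 nm ratio.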

[11] = molecular target: Muscarinic acetylcholine receptor M1 (Homo sapiens) (UniProt P11229); experiment: Cholinergic receptor muscarinic 1 (CHRM1) small molecule antagonists, cell-based qHTS assay (AID 1963588); also: potency is read from the fitted curve at half-maximal effect; nearly all actives have a fitted effect of over 40% in size
Method in brief: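 Compounds were tested at 15 concentrations in three independent runs. Dye-loaded CHRM1-CHO cells were exposed 5 min at room temperature before stimulation by acetylcholine added at 50nM. Intracellular calcium was read kinetically on FDSS for 3 min.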

O=C(/C=C/C=C/c1ccc2c(c1)OCO2)N1CCCCC1
inactive: Potency [1] | Potency [2]
inconclusive: Potency [3] 596 nM [inhibitor, single point] and 47.2 µM [inhibitor, single point] | Potency [4] 34.4 µM [rising, partial curve] | activity change, negative = inhibition [5] 13.9% | activation [6] 31.4% and -15.3% | activity change, negative = inhibition [7] -0.657%

CN1CCN(CCCN2c3ccccc3Sc3ccc(C(F)(F)F)cc32)CC1
active: Potency [7] 0.0298 µM
inconclusive: Potency [1] 22.3 µM [cytotoxic, partial curve, poor fit] | Potency [2] 25.1 µM [rising, single point] | Potency [4] 29.8 µM [rising, partial curve] | Potency [5] 26.6 µM [partial curve]

COC(=O)C1=C(C)NC(C)=C(C(=O)OCCN2CCN(C(c3ccccc3)c3ccccc3)CC2)C1c1cccc([N+](=O)[O-])c1 (stereo not drawn)
inactive: Potency [1] | Potency [5] | Potency [6]
inconclusive: Potency [2] 2.51 µM [rising, full curve] | Potency [4] 15 µM [rising, partial curve] | activation [8] 17% [at 42.5 µM]
active: Potency [3] 8.18 µM

Cc1ncc(CO)c(CO)c1O
inconclusive: Potency [2] 0.458 µM [falling, single point] | Potency [9] 0.213 µM [rising, full curve, poor fit]
inactive: Potency [1] | Potency [4] | Potency [6]

O=C(Nc1ccc(Oc2ccc(Cl)cc2)c(Cl)c1)c1cc(I)cc(I)c1O
inconclusive: activation [2] 15.1% [at 30.3 µM] | Potency [4] 33.5 µM | activation [6] 14.7% [at 42.5 µM]
active: Potency [1] 5 µM
inactive: Potency [10]

CNc1ccc(O)cc1
inconclusive: Potency [1] 51.2 µM [cytotoxic, single point] | Potency [2] 40.7 µM [rising, partial curve] | Potency [11] 37.4 µM [inhibitor, partial curve, poor fit] | Potency [4] 68.5 µM | Potency [5] 54.4 µM [rising, partial curve] | activity change, negative = inhibition [10] -19.6% | Potency [6] 61 µM | Potency [8] 55.2 µM [falling, partial curve] | Potency [7] 48.5 µM [cytotoxic, partial curve]

Two entries picked at random from the list so far:
O=C(Nc1ccc(Oc2ccc(Cl)cc2)c(Cl)c1)c1cc(I)cc(I)c1O
inconclusive: activation [2] 15.1% [at 30.3 µM] | Potency [4] 33.5 µM | activation [6] 14.7% [at 42.5 µM]
active: Potency [1] 5 µM
inactive: Potency [10]

Cc1ncc(CO)c(CO)c1O
inconclusive: Potency [2] 0.458 µM [falling, single point] | Potency [9] 0.213 µM [rising, full curve, poor fit]
inactive: Potency [1] | Potency [4] | Potency [6]

(listing goes on)

COc1ccc2c(c1)C(=O)N(CCc1ccc(S(=O)(=O)NC(=O)NC3CCCCC3)cc1)C(=O)C2(C)C
inactive: Potency [6]
inconclusive: Potency [1] 17.8 µM [rising, partial curve, poor fit] | Potency [2] 0.63 µM [rising, full curve, poor fit] | Potency [3] 0.0005 µM [inhibitor] | Potency [4] 11.9 µM [rising, partial curve] | Potency [5] 9.44 µM [activator, full curve, poor fit]

CCOc1ccc(NC(=O)OC(C)C)cc1OCC
inconclusive: activation [6] -13.8%
inactive: Potency [1] | Potency [2] | Potency [4]

O=C(O)CCc1nc(-c2ccccc2)c(-c2ccccc2)o1
inconclusive: Potency [1] 7.07 µM [rising, full curve, poor fit] | Potency [2] 9.98 µM [rising, partial curve] | Potency [4] 15 µM [rising, partial curve] | Potency [5] 29.8 µM [fluorescent, partial curve, poor fit]
inactive: Potency [6]

CC(CC1c2ccccc2CCc2ccccc21)CN(C)C (stereo not drawn)
inconclusive: Potency [1] 22.3 µM [rising, single point] | Potency [2] 2.81 µM [rising, full curve, poor fit] | Potency [3] 1.83 µM [inhibitor, full curve, poor fit] | Potency [6] 33.5 µM [inhibitor, single point] | Potency [7] 33.5 µM [inhibitor, single point]

O=C(O)c1cc(N=Nc2ccc([N+](=O)[O-])cc2)ccc1O
inconclusive: Potency [1] 11.3 µM [cytotoxic, full curve, poor fit] | Potency [2] 22.5 µM [rising, partial curve] | Potency [4] 26.8 µM [rising, partial curve] | activity change, negative = inhibition [5] -3.41% | Potency [6] 30.1 µM [inhibitor]
